Results on 5 compounds are retold here after PubChem BioAssay AID258 (DTP/NCI, 2004).

The assay deals with CD2F1 mice, L1210 leukemia sc, survival T/C. In words: NCI In Vivo Anticancer Drug Screen. Data for tumor model L1210 Leukemia (subcutaneous) in CD2F1 (CDF1) mice. Conditions: T/C endpoint: median survival time, higher T/C = longer survival. Summed up: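 Read-out: survival or tumor size. Value = treated (T) / vehicle control (C). Transplantable tumor in mice.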
Setting [1] is: dose: 64.0 mg/kg/injection, schedule: Q01DX009 (sc), vehicle: Klucel (hydroxypropylcellulose) (HPC).

The list is a part of this screen's results and no random one: it gathers tests that were run many times, whatever their T/C, doses with no T/C, and many T/C values between a quarter and a half above the control. Other doses and runs of a compound stand elsewhere. T/C gives the treated animals as a percentage of the vehicle group. Some doses have a count of surviving animals in place of a T/C: the source files T/C as zero there, which appears to mark a toxic dose or a test without result, not a measured value. Some doses without a T/C left all or most animals alive at the check, yet need not have been tolerated: the source hardly ever lists a survival T/C far under the control, and the zero likely stands for such cases as well. Survivors were counted at the toxicity check, usually on the fifth day, unless a day is given; later deaths do not show. Schedule codes are those of the source, read here as Q, the interval in days (D) or hours (H), X, the number of doses. Some structures stand for samples that the source files as different forms (salt, stereo form or complex); doses refer to the form tested. Some doses were run more than once; the values are given in rising order. Some schedule codes hold Z or #, which are not explained here. Where survival is the endpoint, this PubChem deposit counts one and a half times the control or more as active, and values a quarter to a half above the control carry no call in these data; other NCI protocols may use other cut-offs. Additions like (4×) give the number of equal values in this list. Some T/C values carry the count of animals alive at the toxicity check (mostly the fifth day); without a count, all were alive then.

`O=C1NC(=O)C2C3C=CC(C12)C1C2C(=O)NC(=O)C2C31` (stereo unspecified): the T/C is, setting by setting: (dose: 23.3 mg/kg/injection, schedule: Q01DX009 (ip), vehicle: water) 129 % of control; (dose: 24.5 mg/kg/injection, schedule: Q01DX009 (ip), vehicle: other) 125 % of control; (dose: 25.0 mg/kg/injection, schedule: Q01DX005 (iv), vehicle: other) 126 % of control; (dose: 35.0 mg/kg/injection, schedule: Q01DX005 (iv), vehicle: other) 146 % of control; (dose: 35.0 mg/kg/injection, schedule: Q01DX009 (ip), vehicle: other) 135 % of control; (dose: 50.0 mg/kg/injection, schedule: Q01DX005 (ip), vehicle: saline with Tween-80) 145 % of control. For the same compound, the T/C reads like this: (dose: 168.0 mg/kg/injection, schedule: Q01DX009 (oral), vehicle: other) 146 % of control; (dose: 567.0 mg/kg/injection, schedule: Q01DX009 (oral), vehicle: other) 144 % of control. Moreover, the survivor count is, setting by setting: (dose: 100.0 mg/kg/injection, schedule: Q01DX005 (ip), vehicle: other) 6 of 6; (dose: 100.0 mg/kg/injection, schedule: Q01DX005 (iv), vehicle: other) 3 of 6; (dose: 138.9 mg/kg/injection, schedule: Q01DX009 (ip), vehicle: clinical formulation) 0 of 6; (dose: 200.0 mg/kg/injection, schedule: Q01DX005 (ip), vehicle: other) 3 of 6; (dose: 200.0 mg/kg/injection, schedule: Q01DX005 (ip), vehicle: saline with Tween-80) 2 of 6; (dose: 200.0 mg/kg/injection, schedule: Q01DX005 (sc), vehicle: other) 2 of 6. Besides, for the setting “dose: 400.0 mg/kg/injection, schedule: Q01DX005 (ip), vehicle: saline with Tween-80”, the survivor count is recorded as 0 of 6.

Consider `O=C1c2ccccc2C(=O)c2c(NCCNCCO)ccc(NCCNCCO)c21`, for which the T/C runs as follows: (dose: 4.0 mg/kg/injection, schedule: Q01DX009 (sc), vehicle: Klucel (hydroxypropylcellulose) (HPC)) 131 % of control; (dose: 4.0 mg/kg/injection, schedule: Q01DX009 (sc), vehicle: water) 135 % of control; (dose: 8.0 mg/kg/injection, schedule: Q01DX009 (ip), vehicle: saline) 127 % of control; (dose: 8.0 mg/kg/injection, schedule: Q01DX009 (sc), vehicle: Klucel (hydroxypropylcellulose) (HPC)) 136 % of control; (dose: 16.0 mg/kg/injection, schedule: Q01DX009 (ip), vehicle: Klucel (hydroxypropylcellulose) (HPC)) 136 and 148 % of control; (dose: 32.0 mg/kg/injection, schedule: Q01DX009 (ip), vehicle: Klucel (hydroxypropylcellulose) (HPC)) 129 % of control. The T/C is, setting by setting: (dose: 32.0 mg/kg/injection, schedule: Q01DX009 (sc), vehicle: Klucel (hydroxypropylcellulose) (HPC)) 136 % of control; (dose: 64.0 mg/kg/injection, schedule: Q01DX009 (ip), vehicle: Klucel (hydroxypropylcellulose) (HPC)) 125 % of control [8 of 10 alive]; (dose: 64.0 mg/kg/injection, schedule: Q01DX009 (ip), vehicle: water) 125 % of control [9 of 10 alive]; under setting [1], 147 % of control. Also, the survivor count is 10 of 10 under setting [1]; 10 of 10 (dose: 64.0 mg/kg/injection, schedule: Q01DX009 (sc), vehicle: water); 2 of 6 (dose: 128.0 mg/kg/injection, schedule: Q01DX009 (ip), vehicle: saline); 10 of 10 and 6 of 6 (dose: 128.0 mg/kg/injection, schedule: Q01DX009 (sc), vehicle: Klucel (hydroxypropylcellulose) (HPC)); 10 of 10 (dose: 128.0 mg/kg/injection, schedule: Q01DX009 (sc), vehicle: water); 6 of 10 (dose: 256.0 mg/kg/injection, schedule: Q01DX005 (oral), vehicle: water). Besides, the survivor count is, setting by setting: (dose: 512.0 mg/kg/injection, schedule: Q01DX005 (oral), vehicle: Klucel (hydroxypropylcellulose) (HPC)) 10 of 10; (dose: 512.0 mg/kg/injection, schedule: Q01DX005 (oral), vehicle: water) 9 of 10.

In the case of `C[C@]12C[C@H](O)[C@H]3[C@@H](CCC4=CC(=O)CC[C@@]43C)[C@@H]1CC[C@@H]2C(=O)CO`, the survivor count reads like this: (dose: 23.0 mg/kg/injection, schedule: Q01DX Z (sc), vehicle: methylcellulose (MC)) 6 of 10; (dose: 39.0 mg/kg/injection, schedule: Q01DX Z (sc), vehicle: methylcellulose (MC)) 3 of 10; (dose: 65.0 mg/kg/injection, schedule: Q01DX Z (sc), vehicle: methylcellulose (MC)) 2 of 10; (dose: 108.0 mg/kg/injection, schedule: Q01DX Z (sc), vehicle: methylcellulose (MC)) 5 of 10; (dose: 300.0 mg/kg/injection, schedule: Q01DX Z (sc), vehicle: methylcellulose (MC)) 5 of 10.

Take `CC1CN1CCS(=O)(=O)CCN1CC1C` (stereo unspecified): the survivor count by setting is: (dose: 0.28 mg/kg/injection, schedule: Q01DX Z (sc), vehicle: other) 5 of 8; (dose: 0.47 mg/kg/injection, schedule: Q01DX Z (sc), vehicle: other) 5 of 8; (dose: 0.78 mg/kg/injection, schedule: Q01DX Z (sc), vehicle: other) 3 of 8; (dose: 1.3 mg/kg/injection, schedule: Q01DX Z (sc), vehicle: other) 5 of 8. Also, the T/C (dose: 10.0 mg/kg/injection, schedule: Q01DX Z (sc), vehicle: other) is 144 % of control.

Regarding `O=NN(CCCl)C(=O)NCCCl`, the T/C by setting is: (dose: 1.0 mg/kg/injection, schedule: Q01DX009 (ip), vehicle: saline + alcohol) 148 % of control; (dose: 1.75 mg/kg/injection, schedule: Q01DX009 (ip), vehicle: saline + alcohol) 141 % of control; (dose: 2.0 mg/kg/injection, schedule: Q01DX009 (sc), vehicle: saline + alcohol) 142, 160, 179, 192 % of control; (dose: 3.5 mg/kg/injection, schedule: Q01DX009 (ip), vehicle: saline + alcohol) 140 and 148 % of control; (dose: 4.0 mg/kg/injection, schedule: Q01DX009 (sc), vehicle: saline + alcohol) 175, 223, 275, 285 % of control; (dose: 7.5 mg/kg/injection, schedule: Q01DX001 (ip), vehicle: saline + alcohol) 118, 120, 121, 123, 136 % of control. Besides, the T/C is 236 % of control (dose: 8.0 mg/kg/injection, schedule: Q01DX009 (sc), vehicle: saline + alcohol, evaluated on day 30); 271, 296, 404 % of control (dose: 8.0 mg/kg/injection, schedule: Q01DX009 (sc), vehicle: saline + alcohol, evaluated on day 45); 130 % of control (dose: 12.0 mg/kg/injection, schedule: Q01DX009 (ip), vehicle: saline + alcohol); 129 % of control (dose: 14.0 mg/kg/injection, schedule: Q01DX009 (ip), vehicle: saline + alcohol); 140, 142, 144, 157, 180 % of control (dose: 15.0 mg/kg/injection, schedule: Q01DX001 (ip), vehicle: saline + alcohol); 146 % of control (dose: 16.0 mg/kg/injection, schedule: Q01DX009 (ip), vehicle: saline + alcohol). In addition, the T/C reads like this: (dose: 16.0 mg/kg/injection, schedule: Q01DX009 (sc), vehicle: saline + alcohol) 146 % of control; (dose: 30.0 mg/kg/injection, schedule: Q01DX001 (ip), vehicle: saline + alcohol) 300 (2×), 309, 319, 329 % of control; (dose: 65.0 mg/kg/injection, schedule: Q01DX017 (ip), vehicle: none) 136 % of control; (dose: 65.0 mg/kg/injection, schedule: Q01DX017 (sc), vehicle: saline) 133 % of control. Further, the survivor count by setting is: (dose: 64.0 mg/kg/injection, schedule: Q01DX009 (ip), vehicle: saline + alcohol) 9 of 10; (dose: 64.0 mg/kg/injection, schedule: Q01DX009 (sc), vehicle: saline + alcohol) 5 of 10 and 7 of 10.
